The values below come from US20100197768A1.

Protein sequences, listed by entry. Tags and fused reporters are not part of them. Lines headed by an entry give the natural chain unless they say otherwise; changes in a name come on top. Chains listed by the source or under a name are the forms on record and can include a tag or linker.
hA3G-DR (recombinant hA3G-4×His, DNase I and RNase A treated) (Q9HC16, form named): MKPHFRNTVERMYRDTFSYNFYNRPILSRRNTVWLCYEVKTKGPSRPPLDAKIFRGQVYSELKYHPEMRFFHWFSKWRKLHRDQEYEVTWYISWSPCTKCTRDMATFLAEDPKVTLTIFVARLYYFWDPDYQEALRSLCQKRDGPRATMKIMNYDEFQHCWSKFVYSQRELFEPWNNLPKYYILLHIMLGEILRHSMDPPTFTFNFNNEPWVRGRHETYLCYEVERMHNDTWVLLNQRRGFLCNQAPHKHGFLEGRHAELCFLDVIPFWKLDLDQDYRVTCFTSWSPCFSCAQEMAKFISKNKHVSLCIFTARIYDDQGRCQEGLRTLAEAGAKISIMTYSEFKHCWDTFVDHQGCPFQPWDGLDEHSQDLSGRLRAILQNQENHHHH

Results are given in words; binding and its absence hold for the method and conditions named. Some entries that bind do so weakly or less than the wild type.

Experiment [1] addresses hA3G-DR (recombinant hA3G-4×His, DNase I and RNase A treated) (human) (UniProt Q9HC16). Kind of experiment: analytical gel filtration (Superose 6) of hA3G-DR. (Size exclusion chromatography separates by hydrodynamic size, large species first.)
The target is the same in experiment [2]. Kind of experiment: SAXS forward scattering of RNase treated recombinant hA3G-4×His.

In the case of “hA3G-DR (recombinant hA3G-4×His, DNase I and RNase A treated) (from UniProt Q9HC16 1-384) (enzyme)”, the binding entry in experiment [1] and in experiment [2] was “binds” throughout.
